Laboratory results reported in patent US20090149429A1, “ANTIVIRAL COMPOUNDS” (Myriad Genetics, Incorporated, priority 2005, published 2009).
Some results were stated once for a whole list of compounds, not compound by compound.

Tested on: mock-infected MT-4 cells
Assay: Compound toxicity in mock-infected MT-4 cells (WST-1 assay)
Assay type: cell-based
Conditions: four days incubation, read-out: TC50 (concentration of compound that results in death of 50% of the host cells)
Procedure: The HTLV-1 transformed T cell line, MT-4, is highly susceptible to HIV-1 infection. Anti-HIV-1 agents were evaluated in this target cell line by protection from the HIV-induced cytopathic effect. In this assay, viability of both HIV-1 and mock-infected cells was assessed in a […] assay that monitors the ability of metabolically-active cells to reduce the tetrazolium salt WST-1. Cytoprotection by antiviral compounds is indicated by the positive readout of increased WST-1 cleavage.
Briefly, exponentially growing MT-4 cells were mock-infected or batch-infected with the HIV-1 laboratory strain, NL4-3, at a multiplicity of infection of 0.0005. Following a two hour infection, the cells were washed to remove unbound virus and plated in the presence of increasing concentrations of compound. After four days incubation, cytoprotection in the infected cells and compound toxicity in mock-infected cells were analyzed using the WST-1 assay.

| SMILES | CC50 [µM] |
| --- | --- |
| C=C(C)[C@@H]1CC[C@]2(C(=O)NCc3ccncc3)CC[C@]3(C)[C@H](CC[C@@H]4[C@@]5(C)CC[C@H](O)C(C)(C)[C@@H]5CC[C@]43C)[C@@H]12 [Compound 30] | > 10 |
| C=C(C)[C@@H]1CC[C@]2(C(=O)NCCc3ccc(OC)cc3)CC[C@]3(C)[C@H](CC[C@@H]4[C@@]5(C)CC[C@H](OC(=O)CC(C)(C)C(=O)O)C(C)(C)[C@@H]5CC[C@]43C)[C@@H]12 [Compound 36] | > 10 |
| C=C(C)[C@@H]1CC[C@]2(C(=O)NCc3cccnc3)CC[C@]3(C)[C@H](CC[C@@H]4[C@@]5(C)CC[C@H](OC(=O)CC(C)(C)C(=O)O)C(C)(C)[C@@H]5CC[C@]43C)[C@@H]12 [Compound 42] | > 10 |
